# Results from PubChem BioAssay AID1458 (National Center for Advancing Translational Sciences (NCATS), 2008).
# In all, about 210,000 compounds went through this assay and about 5,900 (2.8%) were called active. Inconclusive results (about 5%) are left out. Calls follow the shape of the dose curve; as a rule, active = well fitted activation curve with a large enough effect; inconclusive = small, poorly fitted or top-dose-only effect; inactive = no such curve, though single readings can be large or run the other way. Only a part is listed here, and it is no random draw. The source gives no active or inactive call for entries shown without one.
# Test: qHTS Assay for Enhancers of SMN2 Splice Variant Expression; also: nearly all actives have a fitted effect of over 55% in size; as to activity change, positive = activation: % of control where 0% means no effect
# Conditions: HEK293 SMN2-luciferase splicing reporter, luminescence, 30-36 h; activity change, positive = activation: at 46.1 µM (top of the series) unless noted
# Text: NIH Chemical Genomics Center [NCGC] NIH Molecular Libraries Probe Production centers Network [MLPCN] MLPCN Grant: R03 MH084179-01 Assay Submitter (PI): Elliot Androphy NCGC Assay Overview: Spinal muscular atrophy (SMA) is caused by insufficient levels of the survival motor neuron protein SMN. The SMN locus on chromosome 5q13 contains two inverted copies of SMN called SMN1 and SMN2 which are 99% identical at the amino acid level. SMN1 is a fully functional protein and SMN2 skips exon 7 90% of the time. Skipping of exon 7 produces non-functional protein product. 10% of the SMN2 protein includes exon 7 and is fully functional. In the SMA disease state, mutations in the SMN1 locus are the cause of the disease state. Because only 10% of SMN2 is of the fully functional form, it is not sufficient to overcome the deficiency produced by the loss of the SMN1 product. A therapy that either increase the amount of SMN2 product made or to increase the inclusion of exon 7 has been proposed for the treatment of SMA. We have designed an assay to identify small molecules that can increase the amount of functional SMN2 product by appending a luciferase reporter gene after the native SMN2 gene, such that inclusion of exon 7 in the expressed product places the luciferase sequence in frame, thus generating functional luciferase enzyme.
# NCGC Assay Protocol Summary: This screen utilizes a luciferase reporter gene assay, combining the promoter and splicing based cassettes in tandem with the major portion of the native SMN2 cDNA, and then transfected into HEK293 cells. Compounds that increase luciferase signal presumably enhance expression of the functional SMN2 splice variant. Passaging media contained DMEM w/ glutamax (+phenol red) 10% FCS, 1x pen/strep, 200 ug/ml hygro, 1x sodium pyruvate. Assay media contained DMEM w/ glutamax (-phenol red) 10% FCS, 1x pen strep, 1x pyruvate Sequence, Parameter, Value, Description (1) Cells, […], 2000 cells/well, 1536 TC treated White solid bottom plate (2) Time, 10-12 hours, 37C 5% CO2 (3) Compound, 23 nl, MLSMR Library (4) Control Compound, 23 nL, Sodium butyrate st 4.5mM (final) conc (5) Time, 30-36 hours, 37C 5% CO2 (6) Reagent, 3 ul, One Glo (TM) from Promega (7) Time, 5-15 minutes, Room temp (8) Detector, Viewlux: luminescent read, 60 second integration, high speed 2x binning Keywords: Spinal muscular atrophy, SMA, SMN2, high throughput screening, MLSMR, MLPCN, NIH Roadmap, qHTS and NCGC
# Potency is read from the fitted curve at half-maximal effect.
Structure (SMILES),"activity change, positive = activation",Potency
COc1ccc2cc3c(N)nn(C(=O)c4ccc(F)cc4Cl)c3nc2c1,inactive: -44.3%,–
CCOC(=O)C1CCN(C(=O)c2ccc3c(SCC(=O)O)c4c(nc3c2)CCCC4)CC1,-21.5%,–
CN(C)S(=O)(=O)N(CC(=O)NCc1ccccc1)c1ccccc1,26.3%,–
Cc1csc(NC(=O)C2CCN(S(=O)(=O)c3ccccc3F)CC2)n1,inactive: -49%,–
CCC/C(=N\NC(=O)c1csc(C)c1C)c1cccs1,–,active: 15.8 µM
O=C(NCC1CCCO1)c1cc(-c2ccccc2)on1 (configuration not stated),–,active: 35.5 µM
CC(C)NS(=O)(=O)c1ccc(NC(=O)CCc2ccccc2)cc1,30.5%,–
CCOC(=O)NC(Nc1ccc(S(N)(=O)=O)cc1)(C(=O)OCC)C(F)(F)F (configuration not stated),49.5%,–
COC(=O)c1cc(COc2ccc3ccc(=O)oc3c2)c(C)o1,37.1%,–
Cc1ccccc1N=Nc1ccc(O)c2ncccc12,inactive: -103%,–
O=C(Nc1ccc(NC(=O)C2CCCCC2)nc1)c1ccccn1,–,active: 22.4 µM
CC(=O)C1=C(O)C(=O)N(CCCCCC(=O)O)C1c1ccc(N(C)C)cc1 (configuration not stated),20.9%,–
CCCCN(C)CC(O)Cn1cc(/C=C/C(=O)c2ccc(OCC)cc2)c2ccccc21 (configuration not stated),inactive: -82.5%,–
CCOC(=O)n1c(=O)n(Cc2ccc(Cl)cc2Cl)c2ccccc21,inactive: -33.3%,–
O=C(N/N=C/c1ccc(Cl)cc1)C1CC12CCC2 (configuration not stated),50.4%,–
C#CCSc1nnc(-c2ccccc2)c(=O)[nH]1,37.3%,–
CCC(=O)NS(=O)(=O)c1cccnc1Nc1ccccc1Cl,30.4%,–
CC(NC(=O)CC(O)(C(F)(F)F)C(F)(F)F)c1ccccc1 (configuration not stated),23%,–
CCc1cc[n+](C2=C([O-])c3ccccc3C(=O)/C2=N\S(=O)(=O)c2cccs2)cc1,-106%,–
Cc1cccc(-c2cc(N)n(-c3ccccc3)n2)c1,–,active: 11.2 µM
Cc1nc2sc(-c3ccccc3)cc2c(=O)[nH]1,–,active: 12.6 µM
CCOc1ccc(NC(=O)CSc2oc(-c3ccccc3)nc2S(=O)(=O)c2ccc(Cl)cc2)cc1,34.8%,–
Cc1cc(C(F)F)n2nc(C(=O)NCc3ccccc3F)nc2n1,30.9%,–
CCCOc1ncnc2c1[nH]c1ccccc12,inactive: -60.3%,–
CN(C)CCNC(=S)Nc1ccc(-c2nc3ccccc3[nH]2)cc1,–,active: 11.2 µM
COc1cccc([C@@H]2Oc3ccc(OC)cc3C(=O)[C@H]2OC(=O)NCc2ccc3c(c2)OCO3)c1,inactive: 13.2%,–

Structure (SMILES),"activity change, positive = activation",Potency
CC(=O)c1ccc(NC(=O)CSCC(=O)Nc2ccc3ccccc3c2)cc1,41.7%,–
O=C(CC12CC3CC(CC(C3)C1)C2)NCC(=O)N1CCCC1,26.3%,–
COCCCN=Cc1c(C)[nH]n(-c2ccc(Br)c(C)c2)c1=O,–,active: 2.82 µM
Cn1c(CO)cnc1SCc1ccccc1,19.8%,–
Cc1cc(C)cc(NC(=O)c2cc(=O)c3ccccc3o2)c1,-29.7%,–
CC1CC(C)CN(CCCNC(=O)Cn2ncn3cccc3c2=O)C1 (configuration not stated),74.1%,–
CCOC(=S)SCC(=O)N1CCc2cc(OC)c(OC)cc2C1C1C(=O)CC(C)(C)CC1=O (configuration not stated),20.5%,–
CCOC(=O)C1CCN(C(=O)Cc2cccs2)CC1,26.6%,–
Cc1ccccc1-c1cc(-c2ccccc2O)on1,–,active: 7.08 µM
C=CCNC(=O)c1ccccc1NC(=O)c1ccc(Cl)c(S(=O)(=O)Nc2ccccc2)c1,-63.4%,–
Cc1nccn1CC(O)COC1CCCCC1 (configuration not stated),24.3%,–
Cn1nc(CC(=O)NCc2ccc(C(F)(F)F)cc2)c2ccccc2c1=O,-87.7%,–
CCOC(=O)N1CCN(C(=O)C2CCN(c3ncnc4c3sc3cccc(F)c34)CC2)CC1,-74.7%,–
O=C(c1ccc2nc(N3CCCCC3)sc2c1)N1CCN(Cc2ccc3c(c2)OCO3)CC1,inactive: -63.5%,–
OCCSc1nc(N2CCOCC2)nc(N2CCOCC2)n1,-46.1%,–
CCOc1cc(C(=O)OCC(=O)c2cc(C)n(CC3CCCO3)c2C)ccc1OCC(=O)N1CCOCC1 (configuration not stated),37.4%,–
COc1ccc(-c2nc(N)n(C(=O)c3ccccc3Cl)n2)cc1,inactive: 18.6%,–
Cc1ccc(NC(=O)c2nc(S(=O)(=O)Cc3ccc(F)cc3)ncc2Cl)cc1C,-79.4%,–
COc1ccc(CNC(=O)c2cnn(-c3ccccc3)c2-n2cccc2)cc1OC,27.6%,–
Cc1ccccc1Cn1c(SCc2ccc(C(=O)N3CCCCC3)cc2)nc2ccncc21,inactive: -64.1%,–
CC(C)(C)C1=Nn2c(nnc2-c2ccco2)SC1,-44.5%,–
Cn1c(CNC(=O)c2ccco2)nnc1SCC(=O)N1c2ccccc2Sc2ccccc21,44.9%,–
Cn1c(-c2c(N)n(-c3ccccc3)c3nc4ccccc4nc23)nc2ccccc21,6.82%,–
Cc1cccc(N2CCN(C(=O)Cn3c(C)c4cnn(-c5ccccc5)c(=O)c4c3C)CC2)c1C,inactive: -12.3%,–
CC1=NN(c2ccccc2)C(=O)C1C(=O)c1cc([N+](=O)[O-])cc([N+](=O)[O-])c1 (configuration not stated),inactive: 19.1%,–
CCC(C)NC(=O)CCSc1ccc(C)cc1 (configuration not stated),-0.625%,–

# Part of the list above in order of formula weight, ascending.
Structure (SMILES),"activity change, positive = activation",Potency
Cc1nccn1CC(O)COC1CCCCC1 (configuration not stated),24.3%,–
Cc1ccccc1-c1cc(-c2ccccc2O)on1,–,active: 7.08 µM
CC(C)(C)C1=Nn2c(nnc2-c2ccco2)SC1,-44.5%,–
Cc1cc(C)cc(NC(=O)c2cc(=O)c3ccccc3o2)c1,-29.7%,–
COc1ccc(-c2nc(N)n(C(=O)c3ccccc3Cl)n2)cc1,inactive: 18.6%,–
CC1=NN(c2ccccc2)C(=O)C1C(=O)c1cc([N+](=O)[O-])cc([N+](=O)[O-])c1 (configuration not stated),inactive: 19.1%,–
CC(=O)c1ccc(NC(=O)CSCC(=O)Nc2ccc3ccccc3c2)cc1,41.7%,–
Cc1ccc(NC(=O)c2nc(S(=O)(=O)Cc3ccc(F)cc3)ncc2Cl)cc1C,-79.4%,–
O=C(c1ccc2nc(N3CCCCC3)sc2c1)N1CCN(Cc2ccc3c(c2)OCO3)CC1,inactive: -63.5%,–
Cn1c(CNC(=O)c2ccco2)nnc1SCC(=O)N1c2ccccc2Sc2ccccc21,44.9%,–
